Reference: publication PMC3903541
Results are given in words; binding and its absence hold for the method and conditions named. Binding seen in cells or lysates may run through a third protein. Where a sequence is shown, tags or fusion partners need not be part of it.

Target: CEP192-GST (aa 1501-1941) (human)
Experiment: pull-down; GST fusion proteins on glutathione-agarose beads; pre-cleared lysate (1 mg protein) of V5-C2orf62-transfected HEK293T cells, 2 hrs at 4°C; anti-V5 Western blot; only the target purified

binding: no binding
B1: V5-C2orf62 (protein, UniProt Q7Z7H3 1-387)
chain: MSSKVYSTGSRAKDHQPSGPECLPLPEANAEAIDFLSSLHKEELQMLFFSETLAMVSDTGEPQGELTIEVQRGKYQEKLGMLTYCLFVHASSRGFLDKMLCGNSLLGYLSEKLELMEQHSQDFIKFLILPMERKMSLLKQDDQLAVTRSIKEGEEVKTGVTSFPWSSIKGFISEAANLVLLRVMAWRRMVPSNARFLTLDTEGKLCYLTYQNLGFQTIQVDHQQAEVFIVEQTVHAEEGIPMSCQYYLLSDGHLAKRIQVGSPGCCIITKMPILREEDEIEPRPVFEKKPLVWEEDMELYSKFLDRKEELRLGHASYLRQHPEAHALISDFLLFLLLRQPEDVVTFAAEFFGPFDPWRPSSPALGSSHRPNPFRSLEPEGDARSGAA
